Data reported in patent publication US11311512B2, “Lymph directing prodrugs” (priority 2014, dated 2022).

Settings: male, Sprague-Dawley, rat, in vivo
Experimental: Lipid formulations containing the compound of interest were then administered to the animals, the lymph collected and drug concentrations in the lymph subsequently quantified.
Lipid-based formulations of the compounds of the invention or control compounds were prepared as previously described (Trevaskis, N. L. et al., Pharmaceutical Research, 2005, 22(11), 1863-1870). Briefly, approximately 2 mg of the compound (1 mg in the case of Compound 35 and Compound 1), 40 mg oleic acid and 25 mg Tween 80 were mixed in a glass vial until equilibrated (gentle heat (below 50° C.) may be applied for a short period).
[…] This was to eliminate the potential for the relatively high and variable levels of endogenous testosterone in male rats interfering with the quantification of exogenously dosed testosterone. Rats (240-320 g) were maintained on a standard diet and fasted overnight with free access to water prior to experiments. […] The collection tubes were changed hourly and lymph flow was measured gravimetrically. […]
Drug concentration in lymph is expressed as total drug and includes free drug and drug associated with different glycerides. […]

CC(C)c1c(C(=O)Nc2ccccc2)c(-c2ccccc2)c(-c2ccc(F)cc2)n1CC[C@@H](O)C[C@@H](O)CC(=O)O [ATV, atorvastatin, reference compound]
Increase fold (compared with parent drug group): 1.0 fold
Transport of total drug derivatives in lymph (% of dose): 0.17 % of dose
